In PubChem BioAssay AID1487 (National Center for Advancing Translational Sciences (NCATS), 2009) one finds AC50 data, which are given here for 15 molecules.

The structures appear in SMILES notation. Some of the results follow. These are further read-outs of the screen, such as a control signal, another cell line or another target. No call is given for them. Most of these compounds were active or inconclusive in the main read-out, so they are no random draw. Words in brackets tell the shape of the fitted curve; partial curves, single points and poor fits give uncertain potencies.

The assay is described as follows: qHTS Assay for Modulators of Lamin A Splicing. Conditions: HeLa LMNA splicing GFP/RFP minigene ratio, 48 h. A digest of the protocol: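 Read-out is the ratio of GFP to DsRed2 object intensity, acquired by 488 nm laser-scanning cytometry on HeLa lamin A-EGFP minigene reporter cells. Compound incubation 48 hrs at 37 °C in Opti-MEM with 2% FBS; DMSO 0.5% final.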
Setting [1] is: measured here: RFP viability control channel.
Where [2] appears, read: measured here: GFP splicing reporter channel.

A word on the AC50: it is the concentration at which the activity in the assay is half-maximal. In the case of `CCc1nc(N)c(C#N)c(-c2ccc(O)c(OC)c2)c1C`, the AC50 under setting [1] is 35.5 µM [rising, single point]. For `O=C1CCSC2(C(=O)N(Cc3ccc(F)cc3)c3ccccc32)N1c1ccccc1` (stereo unspecified), the AC50 under setting [1] was 31.6 µM [falling, single point].

For the molecule `O=C(CSc1nnc(-c2n[nH]c3ccccc23)n1-c1ccccc1)Nc1ccccc1Cl`, the AC50 is, setting by setting: under setting [2], 0.178 µM [rising, full curve, poor fit]; under setting [1], 14.1 µM [rising, partial curve]. `O=C(Nc1ccc(O)cc1)c1cc(S(=O)(=O)N2CCCC2)ccc1Cl`: under setting [1], the AC50 was 12.6 µM [rising, partial curve]. In the case of `CC(C)(C)c1ccc(C(=O)NCC(=O)OCC(=O)c2ccc3c(c2)-c2ccccc2C3)cc1`, the AC50 under setting [2] is 11.2 µM [falling, partial curve, poor fit]. As for `COc1cccc(/C=N/Nc2nc(Nc3ccc([N+](=O)[O-])cc3)nc(N3CCCC3)n2)c1O`, the AC50 under setting [1] was 6.31 µM [falling, partial curve].

As for `O=C(Nc1nnc(C2CC2)s1)c1cc(-c2ccccc2)nn1-c1ccccc1`, the AC50 under setting [2] was 10 µM [rising, partial curve] and the AC50 under setting [1] was 15.8 µM [rising, single point]. For the molecule `CCC(NC(=O)Nc1nnc(C(F)(F)F)s1)(C(F)(F)F)C(F)(F)F`, the AC50 is, setting by setting: under setting [2], 7.08 µM [falling, partial curve]; under setting [1], 7.94 µM [falling, partial curve]. For the molecule `Cc1c(C)c2c(c(C)c1O)CCC(C)(CN1CCN(c3cc(N4CCCC4)nc(N4CCCC4)n3)CC1)O2` (stereo unspecified), the AC50 is 12.6 µM [falling, partial curve] under setting [2] and 12.6 µM [falling, partial curve] under setting [1]. Turning to `O=C1c2ccccc2C(=O)c2c1ccc(O)c2O`, the AC50 under setting [2] was 1.26 µM [falling, single point]. With `O=C(c1ccccc1)N1CCC(c2nc(-c3ccc(S(=O)(=O)N4CCOCC4)cc3)no2)CC1`, under setting [1], the AC50 is 11.2 µM [rising, partial curve].

`O=C1CC(=C(c2ccccc2)c2ccccc2)C(=O)N1CCCCN1CCN(c2ccccc2)CC1`: the AC50 under setting [1] was 12.6 µM [rising, single point]. `Cc1cccc(CC(=O)NC2CC(=O)N(c3cccc(F)c3)C2)c1` (stereo unspecified): the AC50 is, setting by setting: under setting [2], 2.51 µM [falling, partial curve, poor fit]; under setting [1], 3.16 µM [falling, partial curve, poor fit]. Take `C=CCNc1nc(-c2ccccn2)nnc1-c1ccccc1`: the AC50 under setting [1] was 4.47 µM [rising, full curve].

In the case of `Cc1occc1-c1nnc(SCC(=O)Nc2ccccc2-c2ccccc2)n1C`, the AC50 runs as follows: under setting [2], 17.8 µM [rising, partial curve, poor fit]; under setting [1], 15.8 µM [rising, partial curve, poor fit].
